Results: article PMC5629360
Results are given in words; binding and its absence hold for the method and conditions named. In cells and extracts the contact can be indirect. Some results given as binding are weak or reduced against the parent protein; the word gives no strength. Tags and fused reporters may be left off the sequences shown.

Chains of the proteins cited; added tags and fusions are not shown.
UniProt O08586: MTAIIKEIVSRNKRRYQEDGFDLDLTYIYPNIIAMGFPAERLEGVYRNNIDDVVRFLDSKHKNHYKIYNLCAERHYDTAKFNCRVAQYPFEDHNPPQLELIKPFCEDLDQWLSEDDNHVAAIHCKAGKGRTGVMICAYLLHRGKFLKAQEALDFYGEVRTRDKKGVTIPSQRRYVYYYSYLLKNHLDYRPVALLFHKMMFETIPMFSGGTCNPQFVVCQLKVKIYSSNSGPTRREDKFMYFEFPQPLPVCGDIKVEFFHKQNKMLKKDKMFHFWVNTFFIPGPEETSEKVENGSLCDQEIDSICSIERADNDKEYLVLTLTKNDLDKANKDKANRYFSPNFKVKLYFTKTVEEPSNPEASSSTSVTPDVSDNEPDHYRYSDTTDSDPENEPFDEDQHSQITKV

Target: T1, StrepII-tagged B7-H4 (UniProt Q7TSP5)
T1 sequence: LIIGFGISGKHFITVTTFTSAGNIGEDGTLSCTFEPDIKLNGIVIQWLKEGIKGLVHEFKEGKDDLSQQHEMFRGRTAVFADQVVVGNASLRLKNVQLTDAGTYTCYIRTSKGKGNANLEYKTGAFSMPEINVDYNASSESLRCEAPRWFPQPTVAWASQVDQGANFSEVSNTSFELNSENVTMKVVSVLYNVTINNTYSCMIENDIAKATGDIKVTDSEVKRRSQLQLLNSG
Experiment: co-IP; lysates (also cytoplasmic and nuclear samples) of 293T cells overexpressing StrepII-tagged B7-H4 with Flag-tagged PTEN or HA-tagged AKT; precipitated using strep-tactin sepharose, western blotting for Flag, HA, endogenous AKT or endogenous PTEN

## Flag-tagged PTEN (from UniProt O08586 1-403)
  binding: binds
